The text below walks through data of paper PMC7262597.

Amino acid sequences for entries named in this document (tags omitted).
UniProt Q9W2S2: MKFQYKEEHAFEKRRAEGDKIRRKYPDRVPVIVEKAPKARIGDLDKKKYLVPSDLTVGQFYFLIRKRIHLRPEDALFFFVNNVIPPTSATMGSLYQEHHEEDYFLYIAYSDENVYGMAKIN

The target of the test is T1, Sir2-myc (Drosophila) (UniProt Q9VK34).
T1 sequence: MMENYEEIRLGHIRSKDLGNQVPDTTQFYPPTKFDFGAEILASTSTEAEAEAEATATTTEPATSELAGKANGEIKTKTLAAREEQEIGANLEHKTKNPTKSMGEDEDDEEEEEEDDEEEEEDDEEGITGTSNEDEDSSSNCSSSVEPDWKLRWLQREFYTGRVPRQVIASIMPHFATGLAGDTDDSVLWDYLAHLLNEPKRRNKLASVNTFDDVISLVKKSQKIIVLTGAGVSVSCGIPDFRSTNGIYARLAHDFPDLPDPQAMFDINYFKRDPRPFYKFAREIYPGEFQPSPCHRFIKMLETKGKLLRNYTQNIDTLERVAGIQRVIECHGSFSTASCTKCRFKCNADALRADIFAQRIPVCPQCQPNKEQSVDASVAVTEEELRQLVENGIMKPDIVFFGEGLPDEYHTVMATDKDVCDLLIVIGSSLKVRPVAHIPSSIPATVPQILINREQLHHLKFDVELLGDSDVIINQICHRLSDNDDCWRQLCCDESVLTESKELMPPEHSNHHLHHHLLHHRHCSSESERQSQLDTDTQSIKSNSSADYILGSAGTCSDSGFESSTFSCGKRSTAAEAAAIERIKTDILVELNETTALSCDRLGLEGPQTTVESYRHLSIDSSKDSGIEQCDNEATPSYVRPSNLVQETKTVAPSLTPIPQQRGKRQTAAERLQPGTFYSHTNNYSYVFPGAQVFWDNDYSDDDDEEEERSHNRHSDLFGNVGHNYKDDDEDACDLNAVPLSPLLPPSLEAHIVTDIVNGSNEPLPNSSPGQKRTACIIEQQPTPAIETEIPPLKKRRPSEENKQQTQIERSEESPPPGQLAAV
The test is described as follows: co-IP; Sir2-myc immunoprecipitated with anti-myc from lysates (1 mg protein, Nuclear lysis buffer) of fed and starved (4 h in 20% sucrose) larvae, 2 h at 4°C; GFP-Atg8a detected by blot.

Results are given in words; binding and its absence hold for the method and conditions named. In cells and extracts the contact can be indirect. Some entries that bind do so weakly or less than the wild type. Tags and fused reporters may be left off the sequences shown.

Turning to GFP-Atg8a (from UniProt Q9W2S2 1-121), the binding entry is reported as “binds”.
